Measured values as given in publication PMC7819943, “Rice protein-binding microarrays: a tool to detect cis-acting elements near promoter regions in rice”.
This is one part of the list.

Chains of the proteins cited; added tags and fusions are not shown.
UniProt Q0JBA9, entry or part of it: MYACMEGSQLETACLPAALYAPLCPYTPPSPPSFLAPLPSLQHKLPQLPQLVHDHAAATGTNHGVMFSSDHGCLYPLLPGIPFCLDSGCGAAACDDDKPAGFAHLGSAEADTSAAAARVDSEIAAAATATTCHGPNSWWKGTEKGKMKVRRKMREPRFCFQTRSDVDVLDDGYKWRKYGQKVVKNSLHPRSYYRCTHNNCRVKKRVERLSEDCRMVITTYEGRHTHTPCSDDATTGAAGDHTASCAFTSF

These sequences were tested against OsWRKY34 (Oryza sativa, UniProt Q0JBA9 1-250) (assay: protein-binding microarray (RPBM); PBS, 2% BSA, 51.3 ng/ul salmon testes DNA, 50 uM zinc acetate, 200 nM TF, 25 C, 1 h; high values mean tight binding). Settings: protein: recombinant; tags: N-terminal polyhistidine and DsRed monomer fusion (pET32a); label: CyDye5-dUTP incorporated in the synthesized complementary strand; 3' TTTTT single-stranded linker to array surface; dsDNA, one strand shown.
How it was run: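 Binding signal is reported as fluorescence intensity per feature (arbitrary units) from an Axon 4000B scanner. Incubation used 200 nM of each Ni–NTA-purified, N-terminally polyhistidine- and DsRed-fused transcription factor from E. coli BL21-CodonPlus on a double-stranded custom Agilent array for 1 h at 25 °C, with 50 µM zinc acetate in the buffer, followed by washing.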
For “TTATGTTTTATAAACCTTACTCTCTTCGTTTCAGATTATACGGAGTCACCTAGTGCAG”, the binding signal was 8150 fluorescence intensity (a.u.). For “TTTCTCTCTCTCTCTCTCAGCCTCTCTCTCCCTCTCTCTTCGGAGTCACCTAGTGCAG”, the binding signal was 8540 fluorescence intensity (a.u.). In the case of “TTCCGCCCGTCCCAATCCAGCCACCCGCTCGCCCGTCCGTCGGAGTCACCTAGTGCAG”, the binding signal is reported as 11700 fluorescence intensity (a.u.). “GTTAATATTACCTCGTTTTGCATTAAAACACTTAATTTTTCGGAGTCACCTAGTGCAG” was tested, and the binding signal was 9510 fluorescence intensity (a.u.). For “TCGATCTGATCAGCCCGGCAAGCTTGTCCGTCCTCCATCACGGAGTCACCTAGTGCAG”, the binding signal was 8360 fluorescence intensity (a.u.). In the case of “TGTGTGTGAGTGTATGTAGGGGTGGAAATGGTGTTTATGTCGGAGTCACCTAGTGCAG”, the binding signal is reported as 8970 fluorescence intensity (a.u.). For “GTTGAATCGTTATCCTTTCTACCGACGAAGTGACGTGAGTCGGAGTCACCTAGTGCAG”, the binding signal was 8350 fluorescence intensity (a.u.). In the case of “TTCCAGCCGCGCGTCCATGAGTTGATTTTTCGGGCTAAAACGGAGTCACCTAGTGCAG”, the binding signal is reported as 8210 fluorescence intensity (a.u.). With “TGAACCTTCATACGTGACTATGTCTAGCCGCAAATTCATACGGAGTCACCTAGTGCAG” the binding signal was 8110 fluorescence intensity (a.u.). “ATATCTGGTTTTGCGGTTTGAGGATGTTTTCGTATCCCGACGGAGTCACCTAGTGCAG” was tested, and the binding signal was 12000 fluorescence intensity (a.u.). With “TTTAAAACTAGGACCTGAGTAAATATTTTTCTTGAGTTTTCGGAGTCACCTAGTGCAG” the binding signal was 8040 fluorescence intensity (a.u.). “CACAGCGCCTCTGCTTCCGTTTCAGTCACTCCCCGATCCACGGAGTCACCTAGTGCAG” was tested, and the binding signal was 8740 fluorescence intensity (a.u.). For “GACTCGAGAAGCCGTCGTCTTCCACCTCTAGTTTTTCTCTCGGAGTCACCTAGTGCAG”, the binding signal was 10500 fluorescence intensity (a.u.). For “CTCCGACTACCTCAACGCCGCCGTGCCGCTCGCCGACCTCCGGAGTCACCTAGTGCAG”, the binding signal was 8360 fluorescence intensity (a.u.). In the case of “AGTTTTTGTTTGCACTGTTTGATCACTCGTTTTATTAAAACGGAGTCACCTAGTGCAG”, the binding signal is reported as 9390 fluorescence intensity (a.u.). In the case of “GGCTGGTTTGGTTTGTGGCTAAAATTGGCCTTACCAATTTCGGAGTCACCTAGTGCAG”, the binding signal is reported as 10500 fluorescence intensity (a.u.). With “GCCCTCGTGCTACTGCATTGCCGCCGCTGGCGCGTCGCTCCGGAGTCACCTAGTGCAG” the binding signal was 8310 fluorescence intensity (a.u.). With “CCTCGGTTAACCAAACAGCTGATCTACACATTTTTTTGCACGGAGTCACCTAGTGCAG” the binding signal was 9550 fluorescence intensity (a.u.). For “CTTTAAGCATAACTTTTCGTTTTTTATATTTGCACAATTTCGGAGTCACCTAGTGCAG”, the binding signal was 9320 fluorescence intensity (a.u.). For “CAACTATTTTTCGCAAGTATGAGGGTGTTCTAGCCATTTTCGGAGTCACCTAGTGCAG”, the binding signal was 9290 fluorescence intensity (a.u.). In the case of “GTGAAGGGTGGTAATTAAAAGATGCACGTTACAAATAAGCCGGAGTCACCTAGTGCAG”, the binding signal is reported as 8520 fluorescence intensity (a.u.). For “TCTCGATCGTCTCATCTCATCGTCTACCAACAACTAACCGCGGAGTCACCTAGTGCAG”, the binding signal was 8820 fluorescence intensity (a.u.). In the case of “TACAACTGGGGTGCTCTTTCATTTGACGTCAAGCTCTGCACGGAGTCACCTAGTGCAG”, the binding signal is reported as 8340 fluorescence intensity (a.u.). For “ACCGGCGGGCCCCACCATCTTGACTCCTCTCTGTGATCGACGGAGTCACCTAGTGCAG”, the binding signal was 8500 fluorescence intensity (a.u.). With “CGAACGTGGATGCTCTTTTTTCTATTTCTTTAATAATATACGGAGTCACCTAGTGCAG” the binding signal was 8170 fluorescence intensity (a.u.). In the case of “CTACTATTTCTTCATGTTATATAATTCTCCTTGTTTAAGTCGGAGTCACCTAGTGCAG”, the binding signal is reported as 10500 fluorescence intensity (a.u.). “GGCTTTCCCTATCTGCTCGCCAACCCAAATAGCATGTTATCGGAGTCACCTAGTGCAG” was tested, and the binding signal was 8880 fluorescence intensity (a.u.). With “AGCCTTCCGGTGAACTCCGGCGACGGGCGGGTGTGGGGATCGGAGTCACCTAGTGCAG” the binding signal was 11000 fluorescence intensity (a.u.). With “AAGTCATCAGCTGCAGCCTCGGCCGCATCACATCTGAGCCCGGAGTCACCTAGTGCAG” the binding signal was 8270 fluorescence intensity (a.u.). In the case of “ACGTTGCCCTGCCTGCTTTCTTCTTGGATCGTCTCCATCTCGGAGTCACCTAGTGCAG”, the binding signal is reported as 9520 fluorescence intensity (a.u.). In the case of “TTTATCTATTTTGGAACATTATTATATACATGTTAATTGTCGGAGTCACCTAGTGCAG”, the binding signal is reported as 8430 fluorescence intensity (a.u.). With “CTACACTTCCACTGGCGATCTCCCTGGCAATGGCCCTACTCGGAGTCACCTAGTGCAG” the binding signal was 9860 fluorescence intensity (a.u.). With “ACTGTAGTAGTAGTAGATTCGCTTGCCGTCACTCTCGTCCCGGAGTCACCTAGTGCAG” the binding signal was 8570 fluorescence intensity (a.u.). In the case of “TTCCGGGTCATGTGTACATTATTATTCGAGTGATTTTACACGGAGTCACCTAGTGCAG”, the binding signal is reported as 8160 fluorescence intensity (a.u.). For “TTTTGTGGTATTTTAAACATGGTTTATATTTCTTATATTTCGGAGTCACCTAGTGCAG”, the binding signal was 9830 fluorescence intensity (a.u.). For “TTTCACCTAGTCCTAGCCTAATTCGTCTATCTTTATCAATCGGAGTCACCTAGTGCAG”, the binding signal was 9710 fluorescence intensity (a.u.). In the case of “AAGGGCGAGGGTGGGTATGGGACAAGGCGGTGGACGCTGGCGGAGTCACCTAGTGCAG”, the binding signal is reported as 12900 fluorescence intensity (a.u.). For “GCACCCTCAACTAGTACAGTGCTACACTTGTTGGCCATTACGGAGTCACCTAGTGCAG”, the binding signal was 8280 fluorescence intensity (a.u.). For “CTCGCAATTTTGTACGTGTATCATTCTTCCTCATTTTTCTCGGAGTCACCTAGTGCAG”, the binding signal was 9750 fluorescence intensity (a.u.). “TCCTTATTTTTTAATTCCGAATTTCAACTATTTCAACATTCGGAGTCACCTAGTGCAG” was tested, and the binding signal was 9730 fluorescence intensity (a.u.). “AGGGCGGTGGGGCGGCAAGGGACCAGATGGTGGGGCGGCACGGAGTCACCTAGTGCAG” was tested, and the binding signal was 11100 fluorescence intensity (a.u.). For “GCACTCCACTTACTCTCCGCCCTGGCCCTCTTCTTGGTCTCGGAGTCACCTAGTGCAG”, the binding signal was 9370 fluorescence intensity (a.u.).
